# Experimental data published in publication PMC6563844, “Identification and in vivo Efficacy Assessment of Approved Orally Bioavailable Human Host Protein-Targeting Drugs With Broad Anti-influenza A Activity” (Frontiers in Immunology, 2019).
# System: H1N1 A/Puerto Rico/8/34 (PR8)
smiles,measurement,value
NCCCC(O)(P(=O)(O)O)P(=O)(O)O [Alendronate],toxicity in the screen,pronounced toxicity
